Assay results from patent US11649218B2, “C-Abl tyrosine kinase inhibitory compound embodiments and methods of making and using the same” (The USA, as represented by the Secretary, Dept. of Health …, priority 2018, dated 2023).

System: P. falciparum strain NF54 asexual parasites
Test: Asexual stage parasite growth inhibition, SYBR Green assay, 72 hours
Format: cell-based
Conditions: Plasmodium falciparum; NF54, 72 hours
Protocol: In this example, several of the c-Abl inhibitors were tested in the asexual […] strain of P. falciparum parasites for activity against malaria. […] Drug activity in inhibiting growth of asexual stage parasites was tested using a SYBR Green assay as described previously (Eastman et al, Antimicrob. Agents. Chemother. 57:425-435, 2013; […] al., Antimicrob. Agents. Chemother. 48:1803-1806, 2004). […] The pre-diluted parasites were dispensed into a 1536-well plate (2.5 μL/well). […] The fluorescence of each well was measured at 520 nm following excitation at 490 nm using a ViewLux platereader (PerkinElmer).

With Cc1ccc(NC(=O)c2ccc(CN3CCN(C)CC3)cc2)cc1Nc1nccc(-c2cccnc2)n1 [Imatinib] the IC50 was 142 nM.
